We go through 1 compound from US6602487B1, “Methods and tests for producing and for inhibiting coronary artery vasospasms” (Dimera Incorporated, priority 1997, dated 2003).

A short description of the series: Progesterone serum levels after topical ProGest cream in menopausal or postmenopausal women. The class given is in vivo, human. The settings on record: topical ProGest cream 2 ml, per patient. Here is the method: An open label, controlled study was carried out in six healthy menopausal or postmenopausal women using no over-the-counter or prescription medications, medical foods or dietary supplements which would influence progesterone levels. Menopausal or postmenopausal status was determined by clinical methods. The inclusion criteria were low estrogen levels (less than or equal to 25 picograms per ml); non-use of progesterone for two weeks prior to the beginning of the study, and four weeks if medroxyprogesterone acetate was used; a body mass index less than 30; age between 40 and 65; non-smoker; at least six months after menopause (last bleeding); normal mammogram and pap smear within the past year; and reasonable reliability and client compliance. […] The cream was to be applied in 2 ml amounts on calendar days 2-15 at 8 a.m. Applications were increased to a second 2 ml application at 8 p.m. on calendar days 16-30. In addition, estrogen was applied as a […] patch. The patch used was Vivelle®, Ciba (now Novartis), Summit, N.J. The Vivelle® patch (0.05 mg/day) was applied on calendar days 0, 3, 7, 10, 14, 17, 21, 24 and 28.
Estrogen and progesterone serum levels were determined by chemiluminescence and were conducted on calendar days 2, 9, 16, 23, and 30 at times indicated.

Values joined by “and” are separate entries in the source; they are usually repeats but may differ in a detail not shown here. Identical values can stand only once. Further values from the same series stand in other lists.

Consider `CC(=O)[C@H]1CC[C@H]2[C@@H]3CCC4=CC(=O)CC[C@]4(C)[C@H]3CC[C@]12C` [P, progesterone], for which the “Progesterone Levels” value is, setting by setting: (Week 0, 1/2 H) 0.69 Nanograms/ml and 0.47 Nanograms/ml and 0.41 Nanograms/ml and 1.11 Nanograms/ml and 1.5 Nanograms/ml; (Week 0, 1 H) 0.59 Nanograms/ml and 0.52 Nanograms/ml and 0.53 Nanograms/ml and 1 Nanograms/ml and 1.4 Nanograms/ml; (Week 0, 2 H) 0.71 Nanograms/ml and 0.68 Nanograms/ml and 0.61 Nanograms/ml and 1.3 Nanograms/ml and 3.1 Nanograms/ml; (Week 0, 3 H) 2.1 Nanograms/ml and 0.84 Nanograms/ml and 0.57 Nanograms/ml and 1.3 Nanograms/ml and 5.6 Nanograms/ml; (Week 0, 4 H) 0.46 Nanograms/ml and 0.75 Nanograms/ml and 0.92 Nanograms/ml and 1.2 Nanograms/ml and 3.8 Nanograms/ml; (Week 0, 6 H) 0.61 Nanograms/ml and 2.9 Nanograms/ml and 1 Nanograms/ml and 1.3 Nanograms/ml and 1.8 Nanograms/ml. Moreover, the “Progesterone Levels” value is 0.8 Nanograms/ml and 1.7 Nanograms/ml and 1.3 Nanograms/ml and 2.2 Nanograms/ml (Week 0, 12 H); 1.5 Nanograms/ml (Week 2, 24 H); 0.91 Nanograms/ml and 1.5 Nanograms/ml and 1.7 Nanograms/ml and 2.2 Nanograms/ml and 2.6 Nanograms/ml and 2.4 Nanograms/ml (Week 3, 0 H); 0.79 Nanograms/ml and 0.78 Nanograms/ml and 1.2 Nanograms/ml and 2.1 Nanograms/ml and 6.9 Nanograms/ml and 1.6 Nanograms/ml (Week 3, 1 H); 0.74 Nanograms/ml and 2.1 Nanograms/ml and 2 Nanograms/ml (2×) and 1.6 Nanograms/ml and 7.1 Nanograms/ml (Week 3, 2 H); 1.5 Nanograms/ml and 5.6 Nanograms/ml and 1.4 Nanograms/ml and 1.6 Nanograms/ml (2×) and 6.1 Nanograms/ml (Week 3, 4 H). Further, the “Progesterone Levels” value by setting is: (Week 3, 6 H) 0.95 Nanograms/ml and 3.7 Nanograms/ml and 1.1 Nanograms/ml and 2.4 Nanograms/ml and 3 Nanograms/ml and 3.8 Nanograms/ml; (Week 3, 8 H) 0.73 Nanograms/ml and 4.1 Nanograms/ml and 1.1 Nanograms/ml and 1.7 Nanograms/ml and 3.8 Nanograms/ml and 2.1 Nanograms/ml; (Week 3, 12 H) 0.63 Nanograms/ml and 1.2 Nanograms/ml and 1.5 Nanograms/ml and 2.1 Nanograms/ml and 1.8 Nanograms/ml and 2.7 Nanograms/ml; (Week 3, 24 H) 0.47 Nanograms/ml and 1.3 Nanograms/ml and 1 Nanograms/ml and 1.7 Nanograms/ml and 4.4 Nanograms/ml and 4.5 Nanograms/ml; (Week 4, 0 H) 0.78 Nanograms/ml and 2 Nanograms/ml and 2.2 Nanograms/ml and 2.1 Nanograms/ml (2×) and 1.9 Nanograms/ml; (Week 4, 1 H) 4.6 Nanograms/ml and 1.3 Nanograms/ml and 1.5 Nanograms/ml (2×) and 3.5 Nanograms/ml and 2.8 Nanograms/ml. Besides, the “Progesterone Levels” value (Week 4, 2 H) is 1.2 Nanograms/ml and 2.7 Nanograms/ml and 2.2 Nanograms/ml and 1.5 Nanograms/ml and 2 Nanograms/ml and 4.2 Nanograms/ml; the “Progesterone Levels” value (Week 4, 4 H) is 0.97 Nanograms/ml and 4.5 Nanograms/ml and 3 Nanograms/ml and 1.8 Nanograms/ml and 4 Nanograms/ml and 3.1 Nanograms/ml; the “Progesterone Levels” value (Week 4, 6 H) is 1.1 Nanograms/ml and 2.7 Nanograms/ml (2×) and 1.5 Nanograms/ml and 2.4 Nanograms/ml; the “Progesterone Levels” value (Week 4, 8 H) is 1.5 Nanograms/ml and 1.3 Nanograms/ml and 1.1 Nanograms/ml and 2.7 Nanograms/ml and 3.8 Nanograms/ml and 3.7 Nanograms/ml; the “Progesterone Levels” value (Week 4, 12 H) was 1.3 Nanograms/ml and 3.4 Nanograms/ml and 1.7 Nanograms/ml and 2.1 Nanograms/ml (2×) and 2.8 Nanograms/ml; the “Progesterone Levels” value (Week 4, 24 H) was 1.6 Nanograms/ml and 2.4 Nanograms/ml and 1.4 Nanograms/ml and 2 Nanograms/ml and 5.9 Nanograms/ml and 2.3 Nanograms/ml.
